Changes are numbered by the printed parent chain. No constants are given. Whether binding was seen depends on the method and setting. In cells and extracts the contact can be indirect. For some of these results: Binding can be weak; no strength is given. Sequences can lack the tags named with a protein.

Assay in all cases: co-IP; COS-7 cells cotransfected for 48 h in 10% FBS DMEM with FLAG-MKP7 (WT or mutants) and p38α MAPK-HA, JNK1β-GFP or ERK2-HA; Pierce IP lysis buffer; immunoprecipitation with anti-FLAG M2 overnight and protein-G beads; immunoblot with anti-HA or anti-GFP; quantitation as MAPK/FLAG-MKP7
In assay [1] the target is T1, Full-length FLAG-tagged MKP7 double Y271S/C244S mutant (human) (UniProt Q9BY84).
T1 sequence: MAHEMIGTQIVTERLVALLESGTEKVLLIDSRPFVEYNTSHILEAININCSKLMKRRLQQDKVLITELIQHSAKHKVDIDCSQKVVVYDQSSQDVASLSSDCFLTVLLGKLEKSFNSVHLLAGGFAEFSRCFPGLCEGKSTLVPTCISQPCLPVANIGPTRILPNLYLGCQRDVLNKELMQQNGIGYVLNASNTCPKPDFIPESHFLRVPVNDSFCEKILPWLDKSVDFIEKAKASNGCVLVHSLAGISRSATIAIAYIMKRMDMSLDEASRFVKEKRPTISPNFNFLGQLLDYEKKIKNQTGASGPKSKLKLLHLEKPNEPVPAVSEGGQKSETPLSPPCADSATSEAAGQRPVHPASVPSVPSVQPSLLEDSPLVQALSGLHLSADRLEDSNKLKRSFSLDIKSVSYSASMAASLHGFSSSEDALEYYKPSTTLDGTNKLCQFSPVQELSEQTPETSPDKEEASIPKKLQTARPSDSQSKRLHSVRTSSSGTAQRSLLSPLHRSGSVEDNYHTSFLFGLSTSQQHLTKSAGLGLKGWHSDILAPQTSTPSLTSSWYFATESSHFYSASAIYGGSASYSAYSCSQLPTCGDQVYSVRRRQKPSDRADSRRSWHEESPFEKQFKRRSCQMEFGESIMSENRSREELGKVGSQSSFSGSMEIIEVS

The target in assay [2] is T2, Full-length FLAG-tagged MKP7 Y271W (human) (UniProt Q9BY84).
T2 sequence: T1 sequence with S244C, S271W

Assay [3] has as its target T3, Full-length FLAG-tagged MKP7 WT (1-665 aa) (human) (UniProt Q9BY84).
T3 sequence: T1 sequence with S244C, S271Y

For assay [4], the target named is T4, Full-length FLAG-tagged MKP7 Y271S (human) (UniProt Q9BY84).
T4 sequence: T1 sequence with S244C

For the substance “GFP-tagged JNK1 (JNK1β) in pEGFP-C2 (enzyme)”, the binding result in assay [1] is “no binding”; in assay [2], “no binding”; in assay [3], “binds”; in assay [4] it was “no binding”.

These data come from paper PMC9676401.
